According to paper PMC4749569, “Atomic structure of the 26S proteasome lid reveals the mechanism of deubiquitinase inhibition” (eLife, 2016):
No constants are given. Whether binding was seen depends on the method and setting. Some binding calls cover weakened binding; strength is not graded here.

By UniProt entry, the sequences of proteins in these tests, tags left out.
UniProt P43588: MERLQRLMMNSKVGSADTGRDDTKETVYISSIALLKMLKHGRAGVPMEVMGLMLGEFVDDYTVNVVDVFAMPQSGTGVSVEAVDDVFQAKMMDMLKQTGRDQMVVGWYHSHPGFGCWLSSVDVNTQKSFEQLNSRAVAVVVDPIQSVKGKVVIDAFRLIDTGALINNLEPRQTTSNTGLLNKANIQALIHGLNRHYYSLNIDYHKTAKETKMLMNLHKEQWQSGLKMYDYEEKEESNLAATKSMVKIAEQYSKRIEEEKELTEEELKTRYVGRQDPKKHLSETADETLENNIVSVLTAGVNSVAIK

Columns and labels:
[1] = target: T1, Rpn8 (S. cerevisiae (yeast)) (UniProt Q08723); assay: cryo-EM structure; isolated recombinant yeast lid (nine subunits co-expressed in E. coli, purified as one complex), ~5 uM in FLAG buffer (50 mM HEPES, pH7.6, 100 mM NaCl, 100 mM KCl) with 1.5 mM TCEP and 0.05% NP-40; 3.5 Å; both purified
T1 sequence: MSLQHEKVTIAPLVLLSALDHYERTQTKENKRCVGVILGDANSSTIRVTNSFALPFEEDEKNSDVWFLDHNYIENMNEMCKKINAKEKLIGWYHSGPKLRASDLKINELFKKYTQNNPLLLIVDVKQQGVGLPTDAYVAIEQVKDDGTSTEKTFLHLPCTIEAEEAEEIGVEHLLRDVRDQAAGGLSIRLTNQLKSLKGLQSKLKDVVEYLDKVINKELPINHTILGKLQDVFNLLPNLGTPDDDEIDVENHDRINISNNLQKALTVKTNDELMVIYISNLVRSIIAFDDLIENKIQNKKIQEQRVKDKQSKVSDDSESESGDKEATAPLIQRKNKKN

[2] = target: Rpn11 (S. cerevisiae (yeast)) (UniProt P43588); assay: negative-stain EM; purified wild-type and mutant lid, ~50 nM in FLAG buffer (50 mM HEPES, pH7.6, 100 mM NaCl, 100 mM KCl), 2% uranyl formate; 2D class averages and 3D reconstructions at 19.6-27.3 Å; both purified
[3] = target: Rpn11 (S. cerevisiae (yeast)) (UniProt P43588); assay: cryo-EM structure; isolated recombinant yeast lid (nine subunits co-expressed in E. coli, purified as one complex), ~5 uM in FLAG buffer (50 mM HEPES, pH7.6, 100 mM NaCl, 100 mM KCl) with 1.5 mM TCEP and 0.05% NP-40; 3.5 Å; both purified
[4] = target: T2, Rpn9 (S. cerevisiae (yeast)) (UniProt Q04062); assay: negative-stain EM; purified wild-type and mutant lid, ~50 nM in FLAG buffer (50 mM HEPES, pH7.6, 100 mM NaCl, 100 mM KCl), 2% uranyl formate; 2D class averages and 3D reconstructions at 19.6-27.3 Å; both purified
T2 sequence: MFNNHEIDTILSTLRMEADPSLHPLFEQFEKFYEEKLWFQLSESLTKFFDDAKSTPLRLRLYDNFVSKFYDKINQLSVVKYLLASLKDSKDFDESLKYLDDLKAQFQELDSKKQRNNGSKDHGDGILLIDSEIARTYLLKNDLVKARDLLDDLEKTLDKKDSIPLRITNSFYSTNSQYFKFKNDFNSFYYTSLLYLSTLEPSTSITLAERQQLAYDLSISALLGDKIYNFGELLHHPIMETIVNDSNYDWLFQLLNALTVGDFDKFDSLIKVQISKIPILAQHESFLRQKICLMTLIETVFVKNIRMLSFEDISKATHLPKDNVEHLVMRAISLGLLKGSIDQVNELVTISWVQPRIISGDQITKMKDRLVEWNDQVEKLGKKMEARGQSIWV

[5] = target: T2, Rpn9 (S. cerevisiae (yeast)); assay: cryo-EM structure; isolated recombinant yeast lid (nine subunits co-expressed in E. coli, purified as one complex), ~5 uM in FLAG buffer (50 mM HEPES, pH7.6, 100 mM NaCl, 100 mM KCl) with 1.5 mM TCEP and 0.05% NP-40; 3.5 Å; both purified

Molecule: Rpn11 (from UniProt P43588 1-306) (enzyme)
- binding [1]: binds

B1: Rpn5 (natural protein, S. cerevisiae (yeast))
chain: MSRDAPIKADKDYSQILKEEFPKIDSLAQNDCNSALDQLLVLEKKTRQASDLASSKEVLAKIVDLLASRNKWDDLNEQLTLLSKKHGQLKLSIQYMIQKVMEYLKSSKSLDLNTRISVIETIRVVTENKIFVEVERARVTKDLVEIKKEEGKIDEAADILCELQVETYGSMEMSEKIQFILEQMELSILKGDYSQATVLSRKILKKTFKNPKYESLKLEYYNLLVKISLHKREYLEVAQYLQEIYQTDAIKSDEAKWKPVLSHIVYFLVLSPYGNLQNDLIHKIQNDNNLKKLESQESLVKLFTTNELMRWPIVQKTYEPVLNEDDLAFGGEANKHHWEDLQKRVIEHNLRVISEYYSRITLLRLNELLDLTESQTETYISDLVNQGIIYAKVNRPAKIVNFEKPKNSSQLLNEWSHNVDELLEHIETIGHLITKEEIMHGLQAK
- binding [2]: binds
- binding [3]: binds

B2: Rpn8 (protein, UniProt Q08723 1-338)
chain: MSLQHEKVTIAPLVLLSALDHYERTQTKENKRCVGVILGDANSSTIRVTNSFALPFEEDEKNSDVWFLDHNYIENMNEMCKKINAKEKLIGWYHSGPKLRASDLKINELFKKYTQNNPLLLIVDVKQQGVGLPTDAYVAIEQVKDDGTSTEKTFLHLPCTIEAEEAEEIGVEHLLRDVRDQAAGGLSIRLTNQLKSLKGLQSKLKDVVEYLDKVINKELPINHTILGKLQDVFNLLPNLGTPDDDEIDVENHDRINISNNLQKALTVKTNDELMVIYISNLVRSIIAFDDLIENKIQNKKIQEQRVKDKQSKVSDDSESESGDKEATAPLIQRKNKKN
- binding [4]: binds
- binding [5]: binds
